No constants are given. Whether binding was seen depends on the method and setting. Binding seen in cells or lysates may run through a third protein. Some results given as binding are weak or reduced against the parent protein; the word gives no strength. Tags and fused reporters may be left off the sequences shown.

We go through three molecules from article PMC4608684.

Assay [1] concerns the target T1, His6-Cpr7 (purified, from pET29bHTV-CPR7) (S. cerevisiae) (UniProt P47103).
T1 sequence: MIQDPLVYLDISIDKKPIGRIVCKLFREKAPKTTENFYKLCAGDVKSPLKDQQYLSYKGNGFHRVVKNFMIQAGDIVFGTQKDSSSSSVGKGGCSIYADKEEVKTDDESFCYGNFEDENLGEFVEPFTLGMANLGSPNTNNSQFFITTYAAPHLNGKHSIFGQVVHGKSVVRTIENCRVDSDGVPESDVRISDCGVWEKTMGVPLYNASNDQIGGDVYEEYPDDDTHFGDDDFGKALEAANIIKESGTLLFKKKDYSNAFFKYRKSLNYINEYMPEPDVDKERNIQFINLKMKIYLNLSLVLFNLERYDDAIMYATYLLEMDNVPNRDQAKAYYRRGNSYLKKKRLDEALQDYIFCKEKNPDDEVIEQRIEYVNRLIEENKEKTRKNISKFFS
The assay is described as follows: pull-down; purified His6-Cpr7 adsorbed on cobalt metal affinity resin, incubated with supernatant of yeast lysate (cells with Hsp82 or Hsp82ΔMEEVD as sole Hsp90); washed; eluted with 25 mM EDTA; immunoblot with anti-Ure2, anti-Hsp90 and anti-His6; only the target purified. For orientation: In western blotting, separated proteins are transferred to a membrane and probed.

The target in assay [2] is T2, His6-Cpr7 (expressed in yeast from pRS413PTEF-His6-CPR7) (S. cerevisiae) (UniProt P47103).
T2 sequence: T1 sequence
The assay is described as follows: pull-down; lysate (5 mg protein) of SY187 [ure-o] co-expressing His6-Cpr7 and Ure2-GFP or GFP, loaded on cobalt metal affinity resin at 4°C for 2 h; washed; eluted with 25 mM EDTA; immunoblot with anti-GFP or anti-His6.

Take “Hsp82 (expressed as sole Hsp90 in yeast) (from UniProt P02829 1-709)”: the binding entry in assay [1] is given as “binds”.

B1: Ure2 (endogenous, yeast lysate) (protein, UniProt P23202 1-354)
chain: MMNNNGNQVSNLSNALRQVNIGNRNSNTTTDQSNINFEFSTGVNNNNNNNSSSNNNNVQNNNSGRNGSQNNDNENNIKNTLEQHRQQQQAFSDMSHVEYSRITKFFQEQPLEGYTLFSHRSAPNGFKVAIVLSELGFHYNTIFLDFNLGEHRAPEFVSVNPNARVPALIDHGMDNLSIWESGAILLHLVNKYYKETGNPLLWSDDLADQSQINAWLFFQTSGHAPMIGQALHFRYFHSQKIASAVERYTDEVRRVYGVVEMALAERREALVMELDTENAAAYSAGTTPMSQSRFFDYPVWLVGDKLTIADLAFVPWNNVVDRIGINIKIEFPEVYKWTKHMMRRPAVIKALRGE
As to B1, in assay [1], the binding entry is on record as “binds”.

B2: Ure2-GFP (expressed in yeast from pRS426PGPD-URE2-GFP) (protein, UniProt P23202 1-354)
chain: B1 chain
In the case of B2, the binding result in assay [2] is “binds”.
